Values from PubChem BioAssay AID1259282 (Sanger Institute, 2017)

Test: 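siRNA screen across the kinome seeking drug combinations lethal to colorectal cancer cells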 (primary screen)
System: DIFI human colorectal cancer cell line
Reagents: siRNA pool against human genes
Conditions: anchor drug at a mild dose (BYL719 1 µM, cetuximab 5 µg/ml, trametinib 10 nM) or DMSO vehicle; exposure time not given
Measured: 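Robust z-score and replicate-mean viability versus non-targeting pool without drug, plus a synergy score for each low-dose anchor drug (BYL719, cetuximab, trametinib)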
Reading the numbers: robust z-score, knock-down alone: higher = more viable cells than typical knock-down
Hit rule: 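Essential when the robust z-score of the knock-down without drug falls below -3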
Calls: active = essential (knock-down alone, z below -3); inactive = not essential
The whole screen tested 794 reagents; this is a random part of them. In the full data, 11 (1.4%) are marked active. 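Calls flag knock-downs that lower viability without drug; drug synergy appears only in the synergy scores; exposure time not stated.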 Not all columns of the deposit are shown. Not stated in the record: the amount of reagent, the time to read-out.

Gene,"robust z-score, knock-down alone",outcome
DDR2 (GeneID 4921),0.715,inactive
MAP3K14 (GeneID 9020),-0.465,inactive
MKNK1 (GeneID 8569),0.715,inactive
CDKL2 (GeneID 8999),-0.622,inactive
SIK2 (GeneID 23235),0.538,inactive
MASTL (GeneID 84930),0.262,inactive
SMAD2 (GeneID 4087),-1.37,inactive
CKS1B (GeneID 1163),0.399,inactive
PIK3R4 (GeneID 30849),0.715,inactive
CERT1 (GeneID 10087),0.149,inactive
IKBKG (GeneID 8517),0.715,inactive
PIK3C2G (GeneID 5288),-0.183,inactive

Continued (2 carried over from the part before).
Gene,"robust z-score, knock-down alone",outcome
IKBKG (GeneID 8517),0.715,inactive
PIK3C2G (GeneID 5288),-0.183,inactive
FN3K (GeneID 64122),0.535,inactive
TSSK2 (GeneID 23617),0.518,inactive
STK4 (GeneID 6789),0.715,inactive
PKN2 (GeneID 5586),0.715,inactive
EIF2AK3 (GeneID 9451),0.715,inactive
NEK4 (GeneID 6787),0.296,inactive
ATP23 (GeneID 91419),0.0256,inactive
PCK2 (GeneID 5106),0.715,inactive
NUP98 (GeneID 4928),-0.0337,inactive
ULK3 (GeneID 25989),0.715,inactive
MAP3K11 (GeneID 4296),-0.672,inactive
AGK (GeneID 55750),-0.313,inactive
PAK3 (GeneID 5063),-0.0644,inactive
BMPR2 (GeneID 659),-0.0474,inactive
PLK4 (GeneID 10733),-1.84,inactive
TNK2 (GeneID 10188),0.595,inactive
RIOK2 (GeneID 55781),0.0552,inactive
CDK13 (GeneID 8621),0.623,inactive
